Measured values published in US20180206501A1, “CONTROLLING DISEASES AND INSECTS IN PLANTS” (priority 2017, published 2018).
Some entries share one result that the patent states for a list of compounds.

System: Escherichia coli (E. coli)
Assay: Microbial testing, standard pour plate count
Type: cell-based
Conditions: 0.3 grams in 5 ml Tryptic Soy Broth, 48 hours
Experimental: The purpose of this study was to evaluate the effectiveness of test materials labeled #6, #7 and #8, in killing or reducing Escherichia coli (E. coli). The standard pour plate count test method was used to evaluate Percent Reduction of Colony Forming Units (CFU).
The E. coli (lot number 168756) was purchased from Quanti-Cult™ and is derived from original ATCC® stock cultures. They are received dehydrated. A viable streak plate was colonized from this culture. One colony was transferred to 5 ml of sterile Tryptic Soy Broth (lot # A3303) and incubated overnight. Antimicrobial activity was determined by comparing results from the test sample to simultaneously run controls or from the T0. The concentration of the suspension was determined using serial dilution and plate counts to determine the amount of Colony Forming Units (CFU's)/ml of suspension.
The materials tested in this study are described in the Purpose section. Sterile 0.3 mM KH2PO4 buffer was inoculated to a concentration of ˜1.0-3.0×10^5 CFU/ml. A To plate originated from the inoculated buffer for quantification and prepared 1:100 dilution to insure that viable inoculum was applied in the test system. The test materials were formulated in 20×150 […] test tubes. Aliquots of 0.3 grams of each of the materials (#6, #7 and #8) were added to sterile test tubes. […]

CO[Si](CCc1ccc(S(=O)(=O)Cl)cc1)(OC)OC [#8, 2-(4-chlorosulfonylphenyl)ethyltrimethoxysilane]
Percent Reduction of Colony Forming Units (CFU): > 99.9%
